From patent US10023532B2, “Alkyl phenyl sulfide derivative and pest control agent” (KUMIAI CHEMICAL INDUSTRY CO., LTD., priority 2012, dated 2018)
Some entries share one result that the patent states for a list of compounds.

How the values were obtained:
[1] = test system: Nilaparvata lugens Stál (brown rice planthopper); experiment: Insecticidal activity test for Nilaparvata lugens Stál (brown rice planthopper); assay type: in vivo; conditions: active ingredient concentration 100 ppm; sprouting unhulled rice immersed; 10 3-instar larvae; 25° C.; after 6 days; no replication
Protocol: A wettable powder prepared based on Formulation Example 2 was diluted with water into an active ingredient concentration of 100 ppm. In the solution was immersed sprouting unhulled rice. They were placed in a 60-ml plastic cup. Thereinto were released 10 3-instar larvae of brown rice planthopper. The cup was covered with a lid and placed in a thermostat of 25° C. After 6 days, the number of living insects was counted and the mortality of insect was determined from the calculation formula of the following Mathematical Expression 2. This test was conducted with no replication. Mortality (%)=100−[(number of living insects after 6 days)/(number of tested insects)]×100 [Mathematical Expression 2]
As in the case of Test Example 1, tests similar to the above were conducted using, as comparative compounds, compound Nos. 22 and 23 described in JP-A-1975-29744, compound Nos. 4, 5, 6 described in JP-A-1976-19121 and compound Nos. 18, 19 and 36 described in JP-A-1988-41451.

[2] = test system: Tetranychus urticae Koch (two spotted spider mite); experiment: Control effect test for Tetranychus urticae Koch (two spotted spider mite); assay type: in vivo; conditions: active ingredient concentration 4 ppm; soybean seedlings with 35 female adults immersed; 25° C.; after 13 days; no replication
Protocol: A wettable powder prepared based on Formulation Example 2 was diluted with water into an active ingredient concentration of 4 ppm. In the solution were immersed soybean seedlings which had been inoculated with 35 female adults of two spotted spider mite. The soybean seedlings were dried in the air and placed in a thermostat of 25° C. After 13 days, the number of living female adults was examined and the control value of the active ingredient was determined using the calculation formula of the following Mathematical Expression 1. This test was conducted with no replication. Control value=100−[(number of living female adults after 13 days, in treated seedlings)/(number of living female adults after 13 days, in non-treated seedlings)]×100 [Mathematical Expression 1]
Tests similar to the above were conducted using, as comparative compounds, compound Nos. 22 and 23 described in JP-A-1975-29744, compound Nos. 3, 4, 5, 6 described in JP-A-1976-19121 and compound Nos. 18, 19 and 36 described in JP-A-1988-41451. The structures of these comparative compounds are as follows.

COC(=O)N(CCOc1cc(SCC(F)(F)F)c(C)cc1F)S(=O)(=O)C(F)(F)F [A-1180]
mortality [1]: ≥ 90%
control value [2]: ≥ 90

Cc1cc(F)c(OCCNS(=O)(=O)C(F)(F)F)cc1SCC(F)(F)F [A-1136]
mortality [1]: ≥ 90%
control value [2]: ≥ 90

Cc1cc(F)c(OCCCCON=CC(F)(F)F)cc1[S+]([O-])CC(F)(F)F (racemic) [A-0982]
mortality [1]: ≥ 90%
control value [2]: ≥ 90

Cc1cc(F)c(OCCCCSC(F)F)cc1[S+]([O-])CC(F)(F)F (centres unmarked) [A-0544]
mortality [1]: ≥ 90%
control value [2]: ≥ 90

Cc1cc(F)c(OCCCc2ccc(C(F)(F)F)cc2)cc1[S+]([O-])CC(F)(F)F (centres unmarked) [A-0839]
mortality [1]: ≥ 90%
control value [2]: ≥ 90

Cc1cc(Cl)c(OCCCCCSC(F)(F)F)cc1SCC(F)(F)F [A-0440]
mortality [1]: ≥ 90%
control value [2]: ≥ 90

Cc1cc(F)c(OCCCC#N)cc1SCC(F)(F)F [A-1087]
mortality [1]: ≥ 90%
control value [2]: ≥ 90

Cc1cc(F)c(OCCc2ccc(SC(F)(F)F)cc2)cc1[S+]([O-])CC(F)(F)F (centres unmarked) [A-0788]
mortality [1]: ≥ 90%
control value [2]: ≥ 90

Fc1cc(Cl)c(SCC(F)(F)F)cc1OCCCC1CCC(C(F)(F)F)CC1 (centres unmarked) [A-0340]
mortality [1]: ≥ 90%
control value [2]: ≥ 90

Cc1ccc(OCCCSCC(F)(F)F)cc1[S+]([O-])CC(F)(F)F (racemic) [A-0626]
mortality [1]: ≥ 90%
control value [2]: ≥ 90

Cc1cc(F)c(OCCCCCCCSC(F)F)cc1[S+]([O-])CC(F)(F)F (centres unmarked) [A-0587]
mortality [1]: ≥ 90%
control value [2]: ≥ 90

CC(=NOCCCOc1cc([S+]([O-])CC(F)(F)F)c(Cl)cc1F)C(F)(F)F (racemic) [A-0978]
mortality [1]: ≥ 90%
control value [2]: ≥ 90

Cc1cc(F)c(OCCCCCCSC(F)F)cc1SCC(F)(F)F [A-0570]
mortality [1]: ≥ 90%
control value [2]: ≥ 90

Fc1cc(Cl)c(SCC(F)(F)F)cc1OCCC1CCC(C(F)(F)F)CC1 (centres unmarked) [A-0325]
mortality [1]: ≥ 90%
control value [2]: ≥ 90

Cc1cc(F)c(OCCCCNS(=O)(=O)C(F)(F)F)cc1SCC(F)(F)F [A-1158]
mortality [1]: ≥ 90%
control value [2]: ≥ 90

Fc1cc(Cl)c(SCC(F)(F)F)cc1OCCCCCSC1CC1 [A-0379]
mortality [1]: ≥ 90%
control value [2]: ≥ 90

Fc1cc(Cl)c(SCC(F)(F)F)cc1OCCc1ccc(OC(F)(F)F)cc1 [A-0780]
mortality [1]: ≥ 90%
control value [2]: ≥ 90

Cc1cc(F)c(OCCCCCSC(F)F)cc1SCC(F)(F)F [A-0553]
mortality [1]: ≥ 90%
control value [2]: ≥ 90

CC(=NOCCCCCOc1cc(SCC(F)(F)F)c(C)cc1F)C(F)(F)F [A-0991]
mortality [1]: ≥ 90%
control value [2]: ≥ 90

Cc1cc(F)c(OCCC2CCC(F)(F)CC2)cc1SCC(F)(F)F [A-0328]
mortality [1]: ≥ 90%
control value [2]: ≥ 90

Cc1ccc(OCCCCCSC(F)F)cc1SCC(F)(F)F [A-0557]
mortality [1]: ≥ 90%
control value [2]: ≥ 90

Cc1cc(F)c(OCCc2ccc(OC(F)(F)F)cc2)cc1SCC(F)(F)F [A-0778]
mortality [1]: ≥ 90%
control value [2]: ≥ 90

Cc1cc(F)c(OCCCc2ccc(SC(F)(F)F)cc2)cc1SCC(F)(F)F [A-0853]
mortality [1]: ≥ 90%
control value [2]: ≥ 90

[O-][S+](CC(F)(F)F)c1cc(OCCCCCSCC(F)(F)F)ccc1Cl (racemic) [A-0644]
mortality [1]: ≥ 90%
control value [2]: ≥ 90

Cc1cc(F)c(OCC2CCC(F)(F)CC2)cc1SCC(F)(F)F [A-0319]
mortality [1]: ≥ 90%
control value [2]: ≥ 90

Fc1cc(Cl)c(SCC(F)(F)F)cc1OCCc1ccc(C(F)(F)F)c(F)c1 [A-0824]
mortality [1]: ≥ 90%
control value [2]: ≥ 90

CC(=O)N(CCCOc1cc(SCC(F)(F)F)c(C)cc1F)S(=O)(=O)C(F)(F)F [A-1185]
mortality [1]: ≥ 90%
control value [2]: ≥ 90

Cc1cc(F)c(OCCCCSCC(F)(F)F)cc1[S+]([O-])CC(F)(F)F (racemic) [A-0631]
mortality [1]: ≥ 90%
control value [2]: ≥ 90

Cc1cc(F)c(OCCCCCSC(F)F)cc1[S+]([O-])CC(F)(F)F (centres unmarked) [A-0554]
mortality [1]: ≥ 90%
control value [2]: ≥ 90

COc1cc(F)c(OCCCCCSC(F)(F)F)cc1SCC(F)(F)F [A-0448]
mortality [1]: ≥ 90%
control value [2]: ≥ 90

COC(=O)N(CCCCOc1cc(SCC(F)(F)F)c(C)cc1F)S(=O)(=O)C(F)(F)F [A-1195]
mortality [1]: ≥ 90%
control value [2]: ≥ 90

Cc1cc(F)c(OCCCSCC(F)(F)F)cc1[S+]([O-])CC(F)(F)F (racemic) [A-0625]
mortality [1]: ≥ 90%
control value [2]: ≥ 90

Cc1cc(F)c(OCCCON=CC(C)(C)C)cc1[S+]([O-])CC(F)(F)F (racemic) [A-0971]
mortality [1]: ≥ 90%
control value [2]: ≥ 90

CC(C(=O)NCCOc1cc(SCC(F)(F)F)c(Cl)cc1F)(C(F)(F)F)C(F)(F)F [A-1107]
mortality [1]: ≥ 90%
control value [2]: ≥ 90

Cc1cc(F)c(OCC(F)(F)C(F)(F)COc2ccc(C(F)(F)F)cn2)cc1SCC(F)(F)F [B-0086]
mortality [1]: ≥ 90%
control value [2]: ≥ 90

Cc1cc(F)c(OCCCOS(C)(=O)=O)cc1SCC(F)(F)F [A-1033]
mortality [1]: ≥ 90%
control value [2]: ≥ 90

Cc1cc(F)c(OCCc2ccc(C(F)(F)F)c(F)c2)cc1SCC(F)(F)F [A-0822]
mortality [1]: ≥ 90%
control value [2]: ≥ 90

Cc1cc(F)c(OCCc2ccc(C(F)(F)F)c(F)c2)cc1[S+]([O-])CC(F)(F)F (centres unmarked) [A-0821]
mortality [1]: ≥ 90%
control value [2]: ≥ 90

[O-][S+](CC(F)(F)F)c1cc(OCCCCCSC(F)(F)F)ccc1Cl (centres unmarked) [A-0447]
mortality [1]: ≥ 90%
control value [2]: ≥ 90

Cc1cc(F)c(OCCCCNC(=O)OC(C)(C)C)cc1SCC(F)(F)F [A-1125]
mortality [1]: ≥ 90%
control value [2]: ≥ 90

Cc1cc(F)c(OCc2cccc(OC(F)(F)F)c2)cc1[S+]([O-])CC(F)(F)F (racemic) [A-0703]
mortality [1]: ≥ 90%
control value [2]: ≥ 90

Cc1cc(F)c(OCCc2cc(F)c(F)c(F)c2)cc1SCC(F)(F)F [A-0809]
mortality [1]: ≥ 90%
control value [2]: ≥ 90

COC(=O)N(CCCOc1cc([S+]([O-])CC(F)(F)F)c(C)cc1F)S(=O)(=O)C(F)(F)F (centres unmarked) [A-1188]
mortality [1]: ≥ 90%
control value [2]: ≥ 90

Fc1cc(Cl)c(SCC(F)(F)F)cc1OCCC1CCC(F)(F)CC1 [A-0329]
mortality [1]: ≥ 90%
control value [2]: ≥ 90

CSCCCCCOc1cc(SCC(F)(F)F)c(C)cc1F [A-0360]
mortality [1]: ≥ 90%
control value [2]: ≥ 90

Fc1cc(Cl)c(SCC(F)(F)F)cc1OCCc1ccc(OC(F)F)cc1 [A-0772]
mortality [1]: ≥ 90%
control value [2]: ≥ 90

CC(=NOCCCCOc1cc(SCC(F)(F)F)c(Cl)cc1F)C(F)(F)F [A-0984]
mortality [1]: ≥ 90%
control value [2]: ≥ 90

Cc1cc(F)c(OCCCC[Si](C)(C)C)cc1SCC(F)(F)F [A-1210]
mortality [1]: ≥ 90%
control value [2]: ≥ 90

[O-][S+](CC(F)(F)F)c1cc(OCCc2ccc(C(F)(F)F)c(F)c2)c(F)cc1Cl (centres unmarked) [A-0823]
mortality [1]: ≥ 90%
control value [2]: ≥ 90

CC(=NOCCCCOc1cc([S+]([O-])CC(F)(F)F)c(Cl)cc1F)C(F)(F)F (racemic) [A-0988]
mortality [1]: ≥ 90%
control value [2]: ≥ 90

Cc1cc(F)c(OCCc2ccc(C(F)(F)F)cc2F)cc1[S+]([O-])CC(F)(F)F (centres unmarked) [A-0825]
mortality [1]: ≥ 90%
control value [2]: ≥ 90

Cc1cc(F)c(OCc2ccccc2)cc1SCC(F)(F)F [A-0684]
mortality [1]: ≥ 90%
control value [2]: ≥ 90

Cc1ccc(OCCCCCCSC(F)F)cc1[S+]([O-])CC(F)(F)F (centres unmarked) [A-0574]
mortality [1]: ≥ 90%
control value [2]: ≥ 90

CC(=O)N(CCOc1cc(SCC(F)(F)F)c(C)cc1F)S(=O)(=O)C(F)(F)F [A-1177]
mortality [1]: ≥ 90%
control value [2]: ≥ 90

[O-][S+](CC(F)(F)F)c1cc(OCCCC2CCC(C(F)(F)F)CC2)c(F)cc1Cl (centres unmarked) [A-0341]
mortality [1]: ≥ 90%
control value [2]: ≥ 90

O=S(=O)(NCCCOc1cc(SCC(F)(F)F)c(Cl)cc1F)C(F)(F)F [A-1142]
mortality [1]: ≥ 90%
control value [2]: ≥ 90

CC(=NOCCCOc1cc([S+]([O-])CC(F)(F)F)c(C)cc1F)C(F)(F)F (racemic) [A-0973]
mortality [1]: ≥ 90%
control value [2]: ≥ 90

Cc1cc(F)c(OCCc2ccc(OC(F)(F)F)cc2)cc1[S+]([O-])CC(F)(F)F (centres unmarked) [A-0779]
mortality [1]: ≥ 90%
control value [2]: ≥ 90
